± gives the standard deviation of the averaged measurements. The effect of the compound repeats well; differences between the knockouts mostly do not.
System: BT-20
Assay: relative cell number vs DMSO control (72 h) (% of DMSO); higher = less growth inhibition (more cells)
Procedure: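 QMAP-Seq: a pool of 5 breast cancer cell lines (ZR-75-1, SKBR3, HCC-38, MDA-MB-231, BT-20), each carrying 12 doxycycline-inducible Cas9 sgRNA perturbations (11 knockouts plus non-targeting sgNT), was treated with compounds for 72 h at four 10-fold doses (10 nM-10 uM or 1 nM-1 uM range). Barcodes were amplified and sequenced, and cell number was interpolated from 293T spike-in standard curves. The result is expressed as % of the median of DMSO wells. Two biological replicates.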

C[C@]12CC[C@H](O)CC1=CC[C@@H]1[C@@H]2CC[C@]2(C)C(c3cccnc3)=CC[C@@H]12 [Abiraterone]
Details	relative cell number
sgRNA knockout: sgATF3, 1 nM	104.1 ± 0.39
sgRNA knockout: sgATF3, 10 nM	114 ± 1.2
sgRNA knockout: sgATF3, 100 nM	106 ± 4.6
sgRNA knockout: sgATF3, 1000 nM	95.6 ± 9.9
sgRNA knockout: sgATF4, 1 nM	120 ± 3
sgRNA knockout: sgATF4, 10 nM	116 ± 6.9
sgRNA knockout: sgATF4, 100 nM	116 ± 3
sgRNA knockout: sgATF4, 1000 nM	105 ± 3.5
sgRNA knockout: sgATF6, 1 nM	109 ± 2
sgRNA knockout: sgATF6, 10 nM	111 ± 1.9
sgRNA knockout: sgATF6, 100 nM	94.6 ± 7.8
sgRNA knockout: sgATF6, 1000 nM	105 ± 13
sgRNA knockout: sgATG7, 1 nM	114 ± 18
sgRNA knockout: sgATG7, 10 nM	127 ± 13
sgRNA knockout: sgATG7, 100 nM	101 ± 8.1
sgRNA knockout: sgATG7, 1000 nM	105 ± 2.6
sgRNA knockout: sgERN1, 1 nM	103 ± 7
sgRNA knockout: sgERN1, 10 nM	112 ± 2.2
sgRNA knockout: sgERN1, 100 nM	107 ± 2
sgRNA knockout: sgERN1, 1000 nM	113 ± 22
sgRNA knockout: sgHSF1, 1 nM	109 ± 11
sgRNA knockout: sgHSF1, 10 nM	105 ± 14
sgRNA knockout: sgHSF1, 100 nM	104 ± 12
sgRNA knockout: sgHSF1, 1000 nM	118 ± 3.9
sgRNA knockout: sgHSF2, 1 nM	104 ± 4.5
sgRNA knockout: sgHSF2, 10 nM	107.1 ± 0.83
sgRNA knockout: sgHSF2, 100 nM	115 ± 6.4
sgRNA knockout: sgHSF2, 1000 nM	104 ± 10
sgRNA knockout: sgKEAP1, 1 nM	109.9 ± 0.55
sgRNA knockout: sgKEAP1, 10 nM	119 ± 9.2
sgRNA knockout: sgKEAP1, 100 nM	96.3 ± 4.3
sgRNA knockout: sgKEAP1, 1000 nM	101 ± 11
sgRNA knockout: sgNFE2L2, 1 nM	110 ± 15
sgRNA knockout: sgNFE2L2, 10 nM	114 ± 1.3
sgRNA knockout: sgNFE2L2, 100 nM	136 ± 4.8
sgRNA knockout: sgNFE2L2, 1000 nM	109 ± 12
sgRNA knockout: sgSLC35F2, 1 nM	101 ± 5.1
sgRNA knockout: sgSLC35F2, 10 nM	118 ± 6.6
sgRNA knockout: sgSLC35F2, 100 nM	107 ± 13
sgRNA knockout: sgSLC35F2, 1000 nM	104 ± 11
sgRNA knockout: sgXBP1, 1 nM	108 ± 10
sgRNA knockout: sgXBP1, 10 nM	108 ± 11
sgRNA knockout: sgXBP1, 100 nM	111 ± 2
sgRNA knockout: sgXBP1, 1000 nM	107 ± 1.5

CC(C)(C#N)c1cc(Cn2cncn2)cc(C(C)(C)C#N)c1 [Anastrozole]
Details	relative cell number
sgRNA knockout: sgATF3, 1 nM	122 ± 6.1
sgRNA knockout: sgATF3, 10 nM	108 ± 15
sgRNA knockout: sgATF3, 100 nM	100.7 ± 0.84
sgRNA knockout: sgATF3, 1000 nM	108 ± 34
sgRNA knockout: sgATF4, 1 nM	118 ± 23
sgRNA knockout: sgATF4, 10 nM	109 ± 26
sgRNA knockout: sgATF4, 100 nM	117 ± 14
sgRNA knockout: sgATF4, 1000 nM	102 ± 4.6
sgRNA knockout: sgATF6, 1 nM	123 ± 12
sgRNA knockout: sgATF6, 10 nM	115 ± 15
sgRNA knockout: sgATF6, 100 nM	114 ± 2.3
sgRNA knockout: sgATF6, 1000 nM	103 ± 35
sgRNA knockout: sgATG7, 1 nM	122 ± 2.6
sgRNA knockout: sgATG7, 10 nM	98.6 ± 26
sgRNA knockout: sgATG7, 100 nM	101 ± 4.4
sgRNA knockout: sgATG7, 1000 nM	99.2 ± 7.4
sgRNA knockout: sgERN1, 1 nM	121 ± 25
sgRNA knockout: sgERN1, 10 nM	106 ± 14
sgRNA knockout: sgERN1, 100 nM	96 ± 8.6
sgRNA knockout: sgERN1, 1000 nM	101 ± 20
sgRNA knockout: sgHSF1, 1 nM	123 ± 8.3
sgRNA knockout: sgHSF1, 10 nM	104 ± 14
sgRNA knockout: sgHSF1, 100 nM	118 ± 14
sgRNA knockout: sgHSF1, 1000 nM	105 ± 3.2
sgRNA knockout: sgHSF2, 1 nM	120 ± 7.8
sgRNA knockout: sgHSF2, 10 nM	116 ± 24
sgRNA knockout: sgHSF2, 100 nM	109 ± 13
sgRNA knockout: sgHSF2, 1000 nM	112 ± 13
sgRNA knockout: sgKEAP1, 1 nM	118 ± 4.7
sgRNA knockout: sgKEAP1, 10 nM	93.9 ± 5.2
sgRNA knockout: sgKEAP1, 100 nM	105 ± 3.5
sgRNA knockout: sgKEAP1, 1000 nM	114.8 ± 0.98
sgRNA knockout: sgNFE2L2, 1 nM	116 ± 14
sgRNA knockout: sgNFE2L2, 10 nM	120 ± 39
sgRNA knockout: sgNFE2L2, 100 nM	113.8 ± 0.21
sgRNA knockout: sgNFE2L2, 1000 nM	100 ± 12
sgRNA knockout: sgSLC35F2, 1 nM	96.6 ± 6.5
sgRNA knockout: sgSLC35F2, 10 nM	123 ± 5.1
sgRNA knockout: sgSLC35F2, 100 nM	113 ± 1.6
sgRNA knockout: sgSLC35F2, 1000 nM	95.1 ± 11
sgRNA knockout: sgXBP1, 1 nM	125 ± 5.5
sgRNA knockout: sgXBP1, 10 nM	128 ± 4.6
sgRNA knockout: sgXBP1, 100 nM	106 ± 20
sgRNA knockout: sgXBP1, 1000 nM	110 ± 24

C[C@H]1CCC/C=C/[C@@H]2C[C@H](O)C[C@H]2[C@H](O)/C=C/C(=O)O1 [BrefeldinA]
Details	relative cell number
sgRNA knockout: sgATF3, 10 nM	90.6 ± 13
sgRNA knockout: sgATF3, 100 nM	30.4 ± 7.3
sgRNA knockout: sgATF3, 1000 nM	23.6 ± 0.67
sgRNA knockout: sgATF3, 10000 nM	31 ± 8.4
sgRNA knockout: sgATF4, 10 nM	92.5 ± 15
sgRNA knockout: sgATF4, 100 nM	31.1 ± 1.7
sgRNA knockout: sgATF4, 1000 nM	25.5 ± 4.6
sgRNA knockout: sgATF4, 10000 nM	33.3 ± 5.5
sgRNA knockout: sgATF6, 10 nM	86.8 ± 9.3
sgRNA knockout: sgATF6, 100 nM	29.2 ± 4.2
sgRNA knockout: sgATF6, 1000 nM	30.8 ± 11
sgRNA knockout: sgATF6, 10000 nM	26.7 ± 7.4
sgRNA knockout: sgATG7, 10 nM	90.8 ± 2.6
sgRNA knockout: sgATG7, 100 nM	25.5 ± 4.4
sgRNA knockout: sgATG7, 1000 nM	22.5 ± 5.1
sgRNA knockout: sgATG7, 10000 nM	30.9 ± 6
sgRNA knockout: sgERN1, 10 nM	81.6 ± 7.9
sgRNA knockout: sgERN1, 100 nM	25.3 ± 1.2
sgRNA knockout: sgERN1, 1000 nM	25.3 ± 15
sgRNA knockout: sgERN1, 10000 nM	27.5 ± 6.8
sgRNA knockout: sgHSF1, 10 nM	91.2 ± 21
sgRNA knockout: sgHSF1, 100 nM	26.2 ± 0.46
sgRNA knockout: sgHSF1, 1000 nM	27 ± 12
sgRNA knockout: sgHSF1, 10000 nM	30 ± 7.6
sgRNA knockout: sgHSF2, 10 nM	77.61 ± 0.41
sgRNA knockout: sgHSF2, 100 nM	29.1 ± 5.2
sgRNA knockout: sgHSF2, 1000 nM	23.5 ± 0.89
sgRNA knockout: sgHSF2, 10000 nM	33.5 ± 7.3
sgRNA knockout: sgKEAP1, 10 nM	92.9 ± 13
sgRNA knockout: sgKEAP1, 100 nM	24.9 ± 0.37
sgRNA knockout: sgKEAP1, 1000 nM	29.1 ± 3.5
sgRNA knockout: sgKEAP1, 10000 nM	38.8 ± 9.1
sgRNA knockout: sgNFE2L2, 10 nM	88.2 ± 7.3
sgRNA knockout: sgNFE2L2, 100 nM	32.1 ± 2.1
sgRNA knockout: sgNFE2L2, 1000 nM	24.6 ± 7.5
sgRNA knockout: sgNFE2L2, 10000 nM	31 ± 2
sgRNA knockout: sgSLC35F2, 10 nM	89 ± 3.2
sgRNA knockout: sgSLC35F2, 100 nM	31 ± 7.5
sgRNA knockout: sgSLC35F2, 1000 nM	26.8 ± 11
sgRNA knockout: sgSLC35F2, 10000 nM	28.3 ± 0.95
sgRNA knockout: sgXBP1, 10 nM	80.1 ± 9.2
sgRNA knockout: sgXBP1, 100 nM	30.6 ± 2.4
sgRNA knockout: sgXBP1, 1000 nM	23.9 ± 0.43
sgRNA knockout: sgXBP1, 10000 nM	30.9 ± 6.3
